± gives the standard deviation of the averaged measurements. The entries are a selection whose mix differs from that of the whole data set. Most entries show no effect beyond the scatter of the controls.
The targets below were run with Nc1ncnc2c1ncn2[C@@H]1O[C@H](COP(=O)(O)OP(=O)(O)NP(=O)(O)O)[C@@H](O)[C@H]1O [adenylyl imidodiphosphate] (assay: NP40-soluble protein abundance relative to vehicle (solubility fold change) (ratio); higher = more soluble protein in presence of AMP-PNP). Settings: concentration: 0.1mM.
Summary of the method: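 Each value is a fold change relative to the detergent-processed vehicle, calculated per replicate from vsn-normalised intensities. Jurkat crude lysate received eight concentrations (0.1 to 10 mM) for 10 min at room temperature and 3 min at 37 °C, then was solubilised in 0.8% NP40 with benzonase (60 min, 4 °C). The ultracentrifuged supernatant was TMT-labelled and run by LC-MS/MS in three independent experiments.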

The chains behind the UniProt entries cited, without tags or fusion partners. Where a name states a change or a piece, a line headed by the entry shows the natural chain unless it says otherwise.
UniProt Q9BWM7: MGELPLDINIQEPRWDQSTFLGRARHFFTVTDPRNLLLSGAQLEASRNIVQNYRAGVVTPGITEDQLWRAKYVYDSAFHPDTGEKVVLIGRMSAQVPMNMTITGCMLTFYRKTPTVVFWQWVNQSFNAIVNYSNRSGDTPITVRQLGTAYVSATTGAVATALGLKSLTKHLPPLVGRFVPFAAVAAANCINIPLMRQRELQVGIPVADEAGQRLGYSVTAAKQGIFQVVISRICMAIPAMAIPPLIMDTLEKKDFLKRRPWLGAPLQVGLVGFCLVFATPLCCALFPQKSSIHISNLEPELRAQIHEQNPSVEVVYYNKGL
UniProt Q9H967: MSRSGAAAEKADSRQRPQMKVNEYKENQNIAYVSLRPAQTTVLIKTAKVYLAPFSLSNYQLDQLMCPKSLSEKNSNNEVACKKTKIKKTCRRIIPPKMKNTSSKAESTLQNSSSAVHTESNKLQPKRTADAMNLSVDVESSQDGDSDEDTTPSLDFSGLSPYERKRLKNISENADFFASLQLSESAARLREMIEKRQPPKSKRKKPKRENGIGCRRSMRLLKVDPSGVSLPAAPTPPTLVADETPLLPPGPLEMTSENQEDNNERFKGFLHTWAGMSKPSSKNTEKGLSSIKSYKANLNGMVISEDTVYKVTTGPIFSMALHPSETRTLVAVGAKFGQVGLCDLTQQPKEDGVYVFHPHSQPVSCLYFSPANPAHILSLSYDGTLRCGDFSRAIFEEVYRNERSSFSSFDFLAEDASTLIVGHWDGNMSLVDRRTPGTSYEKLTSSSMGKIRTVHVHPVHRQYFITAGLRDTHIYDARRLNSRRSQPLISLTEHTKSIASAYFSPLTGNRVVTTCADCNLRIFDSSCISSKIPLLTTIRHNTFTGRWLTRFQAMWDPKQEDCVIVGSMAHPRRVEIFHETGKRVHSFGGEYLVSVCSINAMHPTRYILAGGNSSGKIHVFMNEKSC
UniProt Q15526: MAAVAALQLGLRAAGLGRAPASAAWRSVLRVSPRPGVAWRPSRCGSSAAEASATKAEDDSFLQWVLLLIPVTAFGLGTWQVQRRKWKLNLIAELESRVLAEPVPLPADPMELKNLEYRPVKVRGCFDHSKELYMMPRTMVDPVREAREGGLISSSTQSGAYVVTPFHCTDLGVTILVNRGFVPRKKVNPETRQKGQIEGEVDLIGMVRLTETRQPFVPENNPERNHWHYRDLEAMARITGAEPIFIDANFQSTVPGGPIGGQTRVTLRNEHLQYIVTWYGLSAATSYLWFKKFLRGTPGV
UniProt Q8IZQ5, whole entry, looked up: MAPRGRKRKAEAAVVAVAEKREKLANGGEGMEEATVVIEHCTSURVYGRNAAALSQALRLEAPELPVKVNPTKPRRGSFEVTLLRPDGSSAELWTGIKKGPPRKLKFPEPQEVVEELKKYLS
UniProt Q9H3P2, whole entry: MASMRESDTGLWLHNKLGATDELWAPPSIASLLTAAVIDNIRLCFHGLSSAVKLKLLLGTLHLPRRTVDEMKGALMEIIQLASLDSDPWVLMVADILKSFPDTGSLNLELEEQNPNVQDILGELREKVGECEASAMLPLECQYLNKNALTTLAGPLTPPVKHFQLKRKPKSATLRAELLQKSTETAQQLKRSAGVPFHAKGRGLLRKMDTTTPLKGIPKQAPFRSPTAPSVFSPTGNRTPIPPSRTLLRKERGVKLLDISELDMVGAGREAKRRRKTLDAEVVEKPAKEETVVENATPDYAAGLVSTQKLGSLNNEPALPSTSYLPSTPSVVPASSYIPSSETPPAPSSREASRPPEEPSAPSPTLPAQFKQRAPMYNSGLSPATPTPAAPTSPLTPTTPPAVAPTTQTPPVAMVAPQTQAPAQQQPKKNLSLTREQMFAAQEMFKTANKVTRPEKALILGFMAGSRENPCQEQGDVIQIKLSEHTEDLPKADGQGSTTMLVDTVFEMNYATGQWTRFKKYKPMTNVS
UniProt Q5TAX3: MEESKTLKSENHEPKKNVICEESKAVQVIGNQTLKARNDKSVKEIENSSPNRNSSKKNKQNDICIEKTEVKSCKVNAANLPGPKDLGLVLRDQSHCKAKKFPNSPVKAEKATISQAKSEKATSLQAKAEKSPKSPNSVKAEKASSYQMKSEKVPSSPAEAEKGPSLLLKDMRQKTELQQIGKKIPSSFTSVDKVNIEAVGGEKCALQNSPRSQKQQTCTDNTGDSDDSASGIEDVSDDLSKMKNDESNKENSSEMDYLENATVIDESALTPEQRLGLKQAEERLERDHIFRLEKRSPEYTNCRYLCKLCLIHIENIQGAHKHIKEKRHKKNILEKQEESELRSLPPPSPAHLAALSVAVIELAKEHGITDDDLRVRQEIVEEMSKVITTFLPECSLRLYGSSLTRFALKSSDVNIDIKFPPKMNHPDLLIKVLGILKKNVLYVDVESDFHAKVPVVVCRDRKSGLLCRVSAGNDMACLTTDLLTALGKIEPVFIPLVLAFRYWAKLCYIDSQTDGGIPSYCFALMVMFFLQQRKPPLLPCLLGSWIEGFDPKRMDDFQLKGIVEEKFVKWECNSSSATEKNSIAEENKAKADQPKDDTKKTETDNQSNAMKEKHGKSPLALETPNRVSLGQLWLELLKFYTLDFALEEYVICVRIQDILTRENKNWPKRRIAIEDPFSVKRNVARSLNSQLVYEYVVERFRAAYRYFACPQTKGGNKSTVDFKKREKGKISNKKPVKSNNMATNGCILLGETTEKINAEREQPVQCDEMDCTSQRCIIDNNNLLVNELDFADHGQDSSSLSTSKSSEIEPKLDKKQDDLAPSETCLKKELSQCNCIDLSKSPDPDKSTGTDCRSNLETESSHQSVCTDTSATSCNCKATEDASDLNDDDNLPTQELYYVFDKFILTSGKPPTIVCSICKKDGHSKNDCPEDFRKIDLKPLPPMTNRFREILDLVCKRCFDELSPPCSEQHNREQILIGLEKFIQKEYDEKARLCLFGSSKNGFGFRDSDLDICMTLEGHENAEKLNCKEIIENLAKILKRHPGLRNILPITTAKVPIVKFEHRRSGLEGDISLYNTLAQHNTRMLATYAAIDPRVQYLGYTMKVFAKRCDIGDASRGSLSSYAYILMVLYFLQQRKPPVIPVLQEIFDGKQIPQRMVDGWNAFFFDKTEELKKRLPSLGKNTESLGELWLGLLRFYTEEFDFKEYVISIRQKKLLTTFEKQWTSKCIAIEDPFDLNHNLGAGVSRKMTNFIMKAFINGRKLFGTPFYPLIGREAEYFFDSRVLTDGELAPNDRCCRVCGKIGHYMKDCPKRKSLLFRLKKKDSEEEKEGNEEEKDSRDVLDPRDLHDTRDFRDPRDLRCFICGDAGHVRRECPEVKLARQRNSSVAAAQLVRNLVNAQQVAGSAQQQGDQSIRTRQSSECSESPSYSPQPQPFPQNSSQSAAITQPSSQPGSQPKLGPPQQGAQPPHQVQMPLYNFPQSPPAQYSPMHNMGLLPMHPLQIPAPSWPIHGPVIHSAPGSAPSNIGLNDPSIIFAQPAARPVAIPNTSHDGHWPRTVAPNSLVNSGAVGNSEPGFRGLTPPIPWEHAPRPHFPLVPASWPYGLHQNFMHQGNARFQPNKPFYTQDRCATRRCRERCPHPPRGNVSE
UniProt Q9Y4K4: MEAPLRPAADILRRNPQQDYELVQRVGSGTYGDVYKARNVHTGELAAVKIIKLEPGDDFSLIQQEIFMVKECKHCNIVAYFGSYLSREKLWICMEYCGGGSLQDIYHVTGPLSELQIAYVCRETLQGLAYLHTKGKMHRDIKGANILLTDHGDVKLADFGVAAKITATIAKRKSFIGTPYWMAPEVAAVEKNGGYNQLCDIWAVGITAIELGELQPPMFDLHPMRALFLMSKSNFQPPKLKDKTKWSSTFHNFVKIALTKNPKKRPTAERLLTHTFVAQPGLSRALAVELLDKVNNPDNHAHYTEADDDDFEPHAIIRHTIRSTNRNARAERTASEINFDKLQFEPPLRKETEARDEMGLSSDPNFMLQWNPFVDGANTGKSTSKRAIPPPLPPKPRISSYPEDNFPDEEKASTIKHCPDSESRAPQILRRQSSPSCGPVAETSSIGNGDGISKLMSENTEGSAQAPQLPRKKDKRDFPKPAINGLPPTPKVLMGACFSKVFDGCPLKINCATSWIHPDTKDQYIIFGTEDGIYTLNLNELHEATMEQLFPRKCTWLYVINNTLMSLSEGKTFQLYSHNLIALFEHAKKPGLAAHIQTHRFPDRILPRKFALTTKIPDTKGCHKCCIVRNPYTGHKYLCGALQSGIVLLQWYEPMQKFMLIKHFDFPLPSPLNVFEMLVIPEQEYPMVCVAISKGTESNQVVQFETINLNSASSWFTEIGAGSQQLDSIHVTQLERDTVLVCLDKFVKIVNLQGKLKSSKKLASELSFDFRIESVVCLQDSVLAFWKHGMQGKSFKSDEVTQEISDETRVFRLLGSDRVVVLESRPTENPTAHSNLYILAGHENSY
UniProt Q03013: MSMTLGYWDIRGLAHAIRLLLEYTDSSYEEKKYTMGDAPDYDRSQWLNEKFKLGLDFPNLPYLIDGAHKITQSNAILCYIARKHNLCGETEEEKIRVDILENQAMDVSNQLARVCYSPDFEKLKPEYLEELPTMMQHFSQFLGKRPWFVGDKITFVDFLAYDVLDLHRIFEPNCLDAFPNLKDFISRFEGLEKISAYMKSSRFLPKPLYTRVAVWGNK
UniProt P39656: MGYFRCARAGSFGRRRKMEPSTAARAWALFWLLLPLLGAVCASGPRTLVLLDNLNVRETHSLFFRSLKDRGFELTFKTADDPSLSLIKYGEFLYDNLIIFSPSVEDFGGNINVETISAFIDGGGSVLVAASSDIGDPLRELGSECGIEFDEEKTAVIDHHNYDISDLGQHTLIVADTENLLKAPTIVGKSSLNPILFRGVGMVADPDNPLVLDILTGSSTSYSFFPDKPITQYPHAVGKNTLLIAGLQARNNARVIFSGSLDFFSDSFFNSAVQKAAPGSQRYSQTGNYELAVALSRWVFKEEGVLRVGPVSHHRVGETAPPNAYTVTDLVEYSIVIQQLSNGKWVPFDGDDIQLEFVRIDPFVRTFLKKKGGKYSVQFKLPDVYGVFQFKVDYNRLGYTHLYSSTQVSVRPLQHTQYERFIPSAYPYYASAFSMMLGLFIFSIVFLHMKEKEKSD
UniProt Q6DN90: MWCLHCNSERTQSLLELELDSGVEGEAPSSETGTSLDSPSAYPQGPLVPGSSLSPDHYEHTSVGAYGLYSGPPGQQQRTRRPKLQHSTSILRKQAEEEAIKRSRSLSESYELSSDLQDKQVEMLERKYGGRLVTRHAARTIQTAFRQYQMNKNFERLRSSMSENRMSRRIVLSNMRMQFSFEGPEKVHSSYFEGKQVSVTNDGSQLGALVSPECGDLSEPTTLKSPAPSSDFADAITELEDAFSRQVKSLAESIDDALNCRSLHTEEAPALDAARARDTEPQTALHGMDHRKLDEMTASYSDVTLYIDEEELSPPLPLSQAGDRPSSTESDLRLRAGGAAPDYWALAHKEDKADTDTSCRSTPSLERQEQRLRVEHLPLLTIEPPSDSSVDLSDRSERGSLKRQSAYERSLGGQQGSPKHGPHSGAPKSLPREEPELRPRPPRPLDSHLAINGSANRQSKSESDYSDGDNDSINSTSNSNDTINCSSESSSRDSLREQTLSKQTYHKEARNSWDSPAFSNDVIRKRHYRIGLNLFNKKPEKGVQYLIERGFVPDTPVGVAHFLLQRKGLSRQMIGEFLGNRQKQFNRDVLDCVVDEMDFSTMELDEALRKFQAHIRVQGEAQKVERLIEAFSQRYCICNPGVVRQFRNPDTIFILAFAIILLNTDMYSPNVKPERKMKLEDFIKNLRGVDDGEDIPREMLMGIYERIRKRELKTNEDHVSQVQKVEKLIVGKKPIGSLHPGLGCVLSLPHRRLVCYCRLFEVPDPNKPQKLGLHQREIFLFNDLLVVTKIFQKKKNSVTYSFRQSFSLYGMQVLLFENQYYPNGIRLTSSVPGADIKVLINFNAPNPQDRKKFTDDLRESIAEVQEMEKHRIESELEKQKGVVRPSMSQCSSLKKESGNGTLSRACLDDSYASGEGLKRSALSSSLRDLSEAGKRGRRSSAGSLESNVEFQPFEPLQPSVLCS
UniProt Q96G74: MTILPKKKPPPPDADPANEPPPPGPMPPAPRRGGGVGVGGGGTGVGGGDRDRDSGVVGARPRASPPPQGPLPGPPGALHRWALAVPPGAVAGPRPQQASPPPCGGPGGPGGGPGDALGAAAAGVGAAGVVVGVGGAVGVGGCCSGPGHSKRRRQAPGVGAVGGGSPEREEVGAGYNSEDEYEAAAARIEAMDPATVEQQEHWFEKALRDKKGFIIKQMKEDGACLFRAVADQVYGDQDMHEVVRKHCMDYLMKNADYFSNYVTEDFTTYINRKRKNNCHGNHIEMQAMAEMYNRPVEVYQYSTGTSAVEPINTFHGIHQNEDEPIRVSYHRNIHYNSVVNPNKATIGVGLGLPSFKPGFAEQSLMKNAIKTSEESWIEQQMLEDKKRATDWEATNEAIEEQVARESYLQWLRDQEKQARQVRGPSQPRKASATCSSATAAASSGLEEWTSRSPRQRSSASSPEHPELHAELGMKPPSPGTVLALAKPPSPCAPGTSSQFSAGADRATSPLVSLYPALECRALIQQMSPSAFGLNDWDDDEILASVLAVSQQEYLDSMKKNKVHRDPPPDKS

Target	NP40-soluble protein abundance
A0A0X1KG71|Q8WX92 (UniProt Q8WX92)	0.995 ± 0.022
A0A0A0MS41|Q9BWM7 (UniProt Q9BWM7)	1.01 ± 0.026
A0A087X060|G3V2W9 and related entries (UniProt Q56P03)	0.99 ± 0.018
A0A087WXI1|Q6NVY1 (UniProt Q6NVY1)	1.01 ± 0.021
A0A0B4J2F8|A6NFM0 and related entries (UniProt Q9GZM3+Q9H1A7+P52435+F6S314+E2QRJ6+A6NFM0)	1.02 ± 0.02
A0A0C4DFX7|Q9H967 (UniProt Q9H967)	1.016 ± 0.0038
A0A0U1RRC9|P57075 and related entries (UniProt P57075)	0.997 ± 0.018
A0A087WYS9|Q15526 and related entries (UniProt Q15526)	0.9743 ± 0.0087
A0A0C4DGJ7 (UniProt Q8WUH1)	1.03 ± 0.022
A0A087WYP2|Q8IZQ5 (UniProt Q8IZQ5)	1.01 ± 0.028
A0A0A0MT22|P08575 and related entries (UniProt P08575)	0.977 ± 0.014
A0A087WYG2|E9PFH7 and related entries (UniProt Q9UPT6)	1.01 ± 0.038
A0A0G2JH68 (UniProt O60610)	0.997 ± 0.0092
A0A088AWN8|Q9UHQ1 and related entries (UniProt Q9UHQ1)	0.993 ± 0.03
A0A087WXK1|D6REL5 and related entries (UniProt Q6UWZ7)	1.01 ± 0.074
A0A0A0MRU0|A0A0C4DH75|A0A0D9SFF8|B4DZ84 and related entries (UniProt Q14168)	0.968 ± 0.036
A0A0C4DFX9|Q9H3P2 (UniProt Q9H3P2)	0.9755 ± 0.0053
A0A0J9YXJ0|E9PC62 and related entries (UniProt O95319)	0.9855 ± 0.0071
A0A0C4DFM7|Q5TAX3 (UniProt Q5TAX3)	0.977 ± 0.019

Target	NP40-soluble protein abundance
A0A0A0MTS7|Q8WZ42-12 (UniProt Q8WZ42)	1.02 ± 0.03
A0A0C4DFL8|F5GX28 and related entries (UniProt O94953)	0.997 ± 0.033
A0A0A0MSK4 (UniProt Q86YR5)	1.02 ± 0.018
A0A0A0MQR1|Q9Y4K4 (UniProt Q9Y4K4)	0.988 ± 0.014
A0A087X1K9|O75608 and related entries (UniProt O75608)	0.9658 ± 0.0051
A0A0C4DFN8|P22570 and related entries (UniProt P22570)	0.99 ± 0.021
A0A0A0MR85|Q03013 (UniProt Q03013)	0.968 ± 0.031
A0A087X2G6|A0A0C4DGU5|D6RIC3 and related entries (UniProt Q9Y3C1)	1 ± 0.038
A0A0J9YXZ6|A0A0J9YY83|Q4VXZ8 and related entries (UniProt Q9NUI1)	1.01 ± 0.031
A0A0A0MRW1|Q5T593 and related entries (UniProt Q8IW50)	0.942 ± 0.027
A0A0G2JIW2|A2AE48 and related entries (UniProt Q12899)	1.04 ± 0.034
A0A0C4DGS1|P39656 (UniProt P39656)	1.02 ± 0.052
A0A087X211|Q8TCG1 and related entries (UniProt Q8TCG1)	0.982 ± 0.04
A0A0D9SFR6|Q86XP1 and related entries (UniProt Q86XP1)	0.99 ± 0.029
A0A087WWK8|A0A0C4DGT3|Q6DN90 (UniProt Q6DN90)	1.03 ± 0.029
A0A087X1A8|F5H211 and related entries (UniProt P54252)	0.974 ± 0.024
A0A087WXV6|Q96G74 and related entries (UniProt Q96G74)	0.999 ± 0.013
A0A0B4J2C3|P13693 and related entries (UniProt P13693)	0.958 ± 0.043

Same assay, conditions: concentration: 0.5mM

Target	NP40-soluble protein abundance
A0A0X1KG71|Q8WX92 (UniProt Q8WX92)	1.01 ± 0.039
A0A0A0MS41|Q9BWM7 (UniProt Q9BWM7)	0.986 ± 0.036
A0A087X060|G3V2W9 and related entries (UniProt Q56P03)	0.9924 ± 0.0052
A0A087WXI1|Q6NVY1 (UniProt Q6NVY1)	1.01 ± 0.035
A0A0B4J2F8|A6NFM0 and related entries (UniProt Q9GZM3+Q9H1A7+P52435+F6S314+E2QRJ6+A6NFM0)	1.09 ± 0.021
A0A0C4DFX7|Q9H967 (UniProt Q9H967)	0.982 ± 0.01
A0A0U1RRC9|P57075 and related entries (UniProt P57075)	0.992 ± 0.019
A0A087WYS9|Q15526 and related entries (UniProt Q15526)	1.03 ± 0.027
A0A0C4DGJ7 (UniProt Q8WUH1)	0.973 ± 0.055
A0A087WYP2|Q8IZQ5 (UniProt Q8IZQ5)	1.02 ± 0.018
A0A0A0MT22|P08575 and related entries (UniProt P08575)	0.987 ± 0.024
A0A087WYG2|E9PFH7 and related entries (UniProt Q9UPT6)	0.989 ± 0.0099
A0A0G2JH68 (UniProt O60610)	1.01 ± 0.018
A0A088AWN8|Q9UHQ1 and related entries (UniProt Q9UHQ1)	1.01 ± 0.048
A0A087WXK1|D6REL5 and related entries (UniProt Q6UWZ7)	0.976 ± 0.016
A0A0A0MRU0|A0A0C4DH75|A0A0D9SFF8|B4DZ84 and related entries (UniProt Q14168)	0.949 ± 0.025
A0A0C4DFX9|Q9H3P2 (UniProt Q9H3P2)	1.01 ± 0.033
A0A0J9YXJ0|E9PC62 and related entries (UniProt O95319)	1 ± 0.018
A0A0C4DFM7|Q5TAX3 (UniProt Q5TAX3)	0.993 ± 0.053

Target	NP40-soluble protein abundance
A0A0A0MTS7|Q8WZ42-12 (UniProt Q8WZ42)	0.97 ± 0.04
A0A0C4DFL8|F5GX28 and related entries (UniProt O94953)	0.996 ± 0.046
A0A0A0MSK4 (UniProt Q86YR5)	1.02 ± 0.021
A0A0A0MQR1|Q9Y4K4 (UniProt Q9Y4K4)	0.992 ± 0.031
A0A087X1K9|O75608 and related entries (UniProt O75608)	0.978 ± 0.02
A0A0C4DFN8|P22570 and related entries (UniProt P22570)	0.989 ± 0.013
A0A0A0MR85|Q03013 (UniProt Q03013)	0.981 ± 0.046
A0A087X2G6|A0A0C4DGU5|D6RIC3 and related entries (UniProt Q9Y3C1)	1.01 ± 0.018
A0A0J9YXZ6|A0A0J9YY83|Q4VXZ8 and related entries (UniProt Q9NUI1)	0.993 ± 0.049
A0A0A0MRW1|Q5T593 and related entries (UniProt Q8IW50)	0.969 ± 0.034
A0A0G2JIW2|A2AE48 and related entries (UniProt Q12899)	1.02 ± 0.031
A0A0C4DGS1|P39656 (UniProt P39656)	0.948 ± 0.14
A0A087X211|Q8TCG1 and related entries (UniProt Q8TCG1)	0.995 ± 0.068
A0A0D9SFR6|Q86XP1 and related entries (UniProt Q86XP1)	1.01 ± 0.024
A0A087WWK8|A0A0C4DGT3|Q6DN90 (UniProt Q6DN90)	0.995 ± 0.045
A0A087X1A8|F5H211 and related entries (UniProt P54252)	0.989 ± 0.025
A0A087WXV6|Q96G74 and related entries (UniProt Q96G74)	1.01 ± 0.054
A0A0B4J2C3|P13693 and related entries (UniProt P13693)	0.991 ± 0.039

Source: the supplement of paper PMC6411743
